Results published in article PMC6239860.
No constants are given. Whether binding was seen depends on the method and setting.

Target: Recombinant human cholesteryl ester transfer protein (CETP) mutant N341Q (human) (UniProt P11597)
Experiment: optimized negative-staining EM (OpNS); purified CETP alone, incubated 1 h at 37 °C with inhibitor buffer or with about 10 uM Torcetrapib, Dalcetrapib or Anacetrapib; single particles imaged; both purified

- binding: no binding
B1: Recombinant human cholesteryl ester transfer protein (CETP) mutant N341Q (protein, UniProt P11597 18-493)
chain: CSKGTSHEAGIVCRITKPALLVLNHETAKVIQTAFQRASYPDITGEKAMMLLGQVKYGLHNIQISHLSIASSQVELVEAKSIDVSIQNVSVVFKGTLKYGYTTAWWLGIDQSIDFEIDSAIDLQINTQLTCDSGRVRTDAPDCYLSFHKLLLHLQGEREPGWIKQLFTNFISFTLKLVLKGQICKEINVISNIMADFVQTRAASILSDGDIGVDISLTGDPVITASYLESHHKGHFIYKNVSEDLPLPTFSPTLLGDSRMLYFWFSERVFHSLAKVAFQDGRLMLSLMGDEFKAVLETWGFNTNQEIFQEVVGGFPSQAQVTVHCLKMPKISCQNKGVVVQSSVMVKFLFPRPDQQHSVAYTFEEDIVTTVQASYSKKKLFLSLLDFQITPKTVSNLTESSSESVQSFLQSMITAVGIPEVMSRLEVVFTALMNSKGVSLFDIINPEIITRDGFLLLQMDFGFPEHLLVDFLQSLS
